Experimental data from article PMC6471494, “Functional Mechanisms Underlying the Antimicrobial Activity of the Oryza sativa Trx-like Protein” (International Journal of Molecular Sciences, 2019).
Results are given in words; binding and its absence hold for the method and conditions named. Some results given as binding are weak or reduced against the parent protein; the word gives no strength.

How the values were obtained:
[1] = target: Oryza sativa Tetratricopeptide Domain-containing thioredoxin (OsTDX) protein (Oryza sativa) (UniProt Q6ES52); test: negative-stain transmission electron microscopy; SEC fractions a, b and c of OsTDX on glow-discharged carbon-coated copper grids, 1% uranyl acetate, FEI Tecnai 20 at 200 kV; both purified
[2] = target: Oryza sativa Tetratricopeptide Domain-containing thioredoxin (OsTDX) protein (Oryza sativa) (UniProt Q6ES52); test: SEC; FPLC, SEC 650 column, 0.5 mL/min, 25 °C, PBS pH 7.2; calibrated with thyroglobulin (670 kDa), γ-globulin (158 kDa), ovalbumin (44 kDa), myoglobin (17 kDa); both purified
[3] = target: Oryza sativa Tetratricopeptide Domain-containing thioredoxin (OsTDX) protein (Oryza sativa) (UniProt Q6ES52); test: native gel or EMSA; native-PAGE of purified recombinant OsTDX (10% by the legend, 12% by the methods); both purified

Measured: binding

B1: Oryza sativa Tetratricopeptide Domain-containing thioredoxin (OsTDX) protein (natural protein, UniProt Q6ES52 1-317, looked up)
chain: MATAGASSFEDEIMESDIELEGEAVEPDNDPPQKMGDPSVEVSDEKRDQAQLCKNKGVDAFSEGKLDEAIEHLTEAIVLNPTSAIAYATRAVIFVKSKKPNAAIRDADAALKINPDSAKGYKSRGMAKAMLGKWEEAAQDLRMAAKLDYDEEIGAELKKVEPNVLKIEEHRKKYERLRKERDIKKAEMEKQRKHAEEVSAASAALKDGDVIAIHSSSELDTKLKAASSLSRLVVLYFTAAWCGPCRFIGPVCKSLAEKHRNVVFLKVDIDELNSVAYRWNVSSVPSFFFVRNGKEIDKVVGADKNGLERKVAQHGSS
notes: OsTDX, Oryza sativa TPR repeat-containing thioredoxin; full-length cDNA amplified from a rice leaf cDNA library and cloned into pGEX-2T; predicted MW ~35 kDa; also called rice Trx-like protein; recombinant OsTDX; source: E. coli BL21(DE3), purified (glutathione-agarose, GST cleaved by thrombin, FPLC SEC 650 column)
binds: all assays above
